# For at least one entry, the source does not settle the construct or the ends of the probe. Tags and fusion partners may be left off the protein sequences shown.
# Target: T1, RFP-flag-FUS P525L (UniProt P35637)
# T1 sequence (looked up, limits assumed): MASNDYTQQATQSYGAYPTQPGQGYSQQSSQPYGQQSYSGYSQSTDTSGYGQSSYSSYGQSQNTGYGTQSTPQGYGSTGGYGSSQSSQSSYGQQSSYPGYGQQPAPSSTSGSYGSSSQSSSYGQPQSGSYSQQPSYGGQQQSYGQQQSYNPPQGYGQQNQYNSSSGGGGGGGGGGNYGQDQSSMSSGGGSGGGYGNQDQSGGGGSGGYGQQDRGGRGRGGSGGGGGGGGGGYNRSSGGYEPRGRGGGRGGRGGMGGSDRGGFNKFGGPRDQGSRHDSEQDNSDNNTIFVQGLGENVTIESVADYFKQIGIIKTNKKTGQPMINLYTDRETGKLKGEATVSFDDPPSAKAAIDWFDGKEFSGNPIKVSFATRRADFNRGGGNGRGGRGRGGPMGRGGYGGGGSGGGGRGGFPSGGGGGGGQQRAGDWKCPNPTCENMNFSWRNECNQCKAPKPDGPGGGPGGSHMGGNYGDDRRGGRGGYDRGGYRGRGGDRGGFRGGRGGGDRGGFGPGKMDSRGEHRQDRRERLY
# Assay: pull-down
# Details: 30 ng FUS with HeLa cytoplasmic extract; Biotin-16-UTP; recombinant protein; protein details: RFP-flag; label: biotin; probe letters rebuilt from the primers and the genome
row,Sequence,binding result
1,GGGGCAUUGAAUGUUCUUUCAUAGCUGUCGUUGUUGAAUAUAAUAUACAUAGAUAGCGAUGUGCAGGGAUUUUUACCCAGCCAGCUAACUUUACUACCUUCCUUGAAGGUGGAUCUUUUUAAGAUGACCAUUCGCUCAUUUGAAGAAGAAAAACAAAAAACAAAAAAAAUAAUAAAAAUAAAACAAUUUUUACAAAGUAAUGGGAUUCAAAGAAAGGAAAAAAAGAUUUUUCUUUUUUGUCAAAAUAUCGAUCCAAUCAGAUUGGUAAAAACCCCCACACAAAUUAAAGAGGAAUAAUAAAAAUUGCAAAAAUAAAAAAAAACUUUUGCAAAUUUUUUUAUUUUUCCUUCUUUCUUUUAUAUCAUGUGAACUAAAACAGUCUUCUGUUAGGGGAUGGGGGCAAGGGGGAUACCUGAUGACAUUAACAAUUUAAUAACAUUAACAUUGUUGCCAAAGAGGUGGUCUCUUUGCUGAAAAUGGGUUUCAAGAAAAAUCUAUUUUUAUAAAAUAUAAAGAAUUUUUACAAGAGAAUCUGGAUUUGAGAAAAAAAUAUUUUGACUGGCUAAUUUAGGGGAAAUUGACAACUUUGUCGCGUUCAUACUGCACUGGUAACUUUUUAGAGAUCAAGAUGUGUGUUUUAAACUGGAUUCGUAGACUGUUUUUUGAAGGAUGGGCUAUAAACAG [HuD 3'UTR F1],binds
2,GGGUGGGCUAUAAACAGAUGAUCUUCAUAUCUUUUCAUAGCAUGUAAUAAUAAUUAAAAAACAAUUAUUAAUUACUAGGGGAAAGGAGUGUUCGUUCUACCCAGGGUACCACAGUUCCCCACAGUCAAAACCCAAAAGCAAGGAGAUGAGUUGAAAGACAGUUUUUCUUUAAGUCAUCAGUAUGGGAUGUCAGCAGAACAAAAAUUAAAAAGAUUAAUUUUCCUUUUGAUCUAAAACUUCCUUAGUUUGAGCAGUAGGUGCUACAAAAUUAUUUACAUAUCUUAGUAUCAUAGUUAAAUGUAAUGUGUUUAGGAGAGGAAAACAAAAGAUACAUUUGCUUUAAAUUCAUUAAGAAAUUUUCAAAUUCACUUUGUAGCCCAUGCUGAUAGAAUUGGGCUGUGUUGGUACAUUUGAAACACUGUUUAUGUUGCUUGAAACACUUAUUUAUUUAAUCGCCGAUGUGAUGAUGCCUAUGGCCGAGAUCAAAUAUAGCUAGAUUGGCUAGACUACUUAUUUGUUUACUUAAACUAUGGGAAGAAGCAUAUUAUUGUGUCAUUCUGUUGUGUGUGUAUGUGUAUAUACAAUAUAAAUAUAUAUAUAUAAAGUUAUUUUUUCUUUGGGUUAAUUUAUUAUAAGUUGUAACACUUGGCUAGUUUUGUUUGUAUAUGUCUUAAAAUGUUUUCUUAUGAUAUUUAAGUGACAGUUAAAGAGGUAUCAAGGUAACUUGUGUAGAACUAUUCUUUGAUAUAUUGUCAUGUUUGUUGUG [HuD 3'UTR F2],binds

# Source: PMC8410767
